Reference: patent publication US20180030500A1, “ENRICHMENT AND SELECTIVE CULTURE OF MYCOBACTERIA” (priority 2015, published 2018)
At least one compound was matched to its structure with a doubt left.

Key:
Assay in all cases: Sensitivity to C-390 in medium W
Format in all cases: cell-based
Aspergillus flavus (ENV) = tested on: Aspergillus flavus (ENV)
Description: (§1) An evaluation of the sensitivity to C-390 of various microorganisms capable of infecting the airways was carried out. This evaluation was carried out using medium W of example 4, containing a variable concentration of C-390. Table 10 below collates the observations collected with regard to the intensity of growth of the strains tested as a function of the C-390 concentration of the medium. The abbreviations NG (“no growth”) and Tr (“traces”) signify that no growth was observed or only a few not very significant traces.

[1] = tested on: Aspergillus terreus (Anon); details: C-390 0.5 mg/l in medium W
Description: as §1

[2] = tested on: Burkholderia anthina (20983); details: C-390 0.5 mg/l in medium W
Description: as §1

[3] = tested on: Burkholderia cenocepacia (640328)
Description: as §1

[4] = tested on: Burkholderia cenocepacia (672834P)
Description: as §1

[5] = tested on: Burkholderia cenocepacia (LMG 18830)
Description: as §1

[6] = tested on: Burkholderia cepacia (LMG 18821)
Description: as §1

[7] = tested on: Burkholderia contaminans (40007X)
Description: as §1

[8] = tested on: Burkholderia dolosa (LMG21820); details: C-390 0.5 mg/l in medium W
Description: as §1

[9] = tested on: Burkholderia multivorans (672832Y)
Description: as §1

[10] = tested on: Burkholderia multivorans (LMG 18822)
Description: as §1

[11] = tested on: Burkholderia multivorans (LMG 18824)
Description: as §1

[12] = tested on: Burkholderia stabilis (716237)
Description: as §1

[13] = tested on: Burkholderia vietnamiensis (744978N); details: C-390 0.5 mg/l in medium W
Description: as §1

[14] = tested on: Burkholderia vietnamiensis (LMG 18835); details: C-390 0.5 mg/l in medium W
Description: as §1

Fusarium oxysporum (ENV) = tested on: Fusarium oxysporum (ENV)
Description: as §1

[15] = tested on: Scedosporium apiospermum (Anon)
Description: as §1

Compound: CCN(CC)c1ccc(C2(Cl)c3ccccc3N(c3ccccc3)c3ccccc32)cc1 [Medium C-390, 9-chloro-9-(4′-diethylamino)phenyl-9,10-dihydro-10-phenylacridine]
- intensity of growth (Aspergillus flavus (ENV); C-390 0.5 mg/l in medium W): ++
- intensity of growth (Aspergillus flavus (ENV); C-390 1 mg/l in medium W): ++
- intensity of growth (Aspergillus flavus (ENV); C-390 2 mg/l in medium W): ++
- intensity of growth (Aspergillus flavus (ENV); C-390 4 mg/l in medium W): +
- intensity of growth [1]: +
- intensity of growth [2]: +
- intensity of growth ([3]; C-390 0.5 mg/l in medium W): +
- intensity of growth ([3]; C-390 1 mg/l in medium W): +
- intensity of growth ([3]; C-390 2 mg/l in medium W): +
- intensity of growth ([3]; C-390 4 mg/l in medium W): +
- intensity of growth ([3]; C-390 8 mg/l in medium W): +
- intensity of growth ([4]; C-390 0.5 mg/l in medium W): +
- intensity of growth ([4]; C-390 1 mg/l in medium W): +
- intensity of growth ([4]; C-390 2 mg/l in medium W): +
- intensity of growth ([5]; C-390 0.5 mg/l in medium W): +
- intensity of growth ([5]; C-390 1 mg/l in medium W): +
- intensity of growth ([5]; C-390 2 mg/l in medium W): +
- intensity of growth ([5]; C-390 4 mg/l in medium W): +
- intensity of growth ([5]; C-390 8 mg/l in medium W): +
- intensity of growth ([6]; C-390 0.5 mg/l in medium W): +
- intensity of growth ([6]; C-390 1 mg/l in medium W): +
- intensity of growth ([6]; C-390 2 mg/l in medium W): +
- intensity of growth ([6]; C-390 4 mg/l in medium W): +
- intensity of growth ([6]; C-390 8 mg/l in medium W): +
- intensity of growth ([7]; C-390 0.5 mg/l in medium W): +
- intensity of growth ([7]; C-390 1 mg/l in medium W): +
- intensity of growth [8]: +
- intensity of growth ([9]; C-390 0.5 mg/l in medium W): +
- intensity of growth ([9]; C-390 1 mg/l in medium W): +
- intensity of growth ([9]; C-390 2 mg/l in medium W): +
- intensity of growth ([10]; C-390 0.5 mg/l in medium W): ++
- intensity of growth ([10]; C-390 1 mg/l in medium W): ++
- intensity of growth ([10]; C-390 2 mg/l in medium W): +
- intensity of growth ([11]; C-390 0.5 mg/l in medium W): +
- intensity of growth ([11]; C-390 1 mg/l in medium W): ++
- intensity of growth ([11]; C-390 2 mg/l in medium W): ++
- intensity of growth ([12]; C-390 0.5 mg/l in medium W): +
- intensity of growth ([12]; C-390 1 mg/l in medium W): +
- intensity of growth ([12]; C-390 2 mg/l in medium W): +
- intensity of growth [13]: +
- intensity of growth [14]: +
- intensity of growth (Fusarium oxysporum (ENV); C-390 0.5 mg/l in medium W): ++
- intensity of growth (Fusarium oxysporum (ENV); C-390 1 mg/l in medium W): +
- intensity of growth (Fusarium oxysporum (ENV); C-390 2 mg/l in medium W): +
- intensity of growth (Fusarium oxysporum (ENV); C-390 4 mg/l in medium W): +
- intensity of growth ([15]; C-390 0.5 mg/l in medium W): +
- intensity of growth ([15]; C-390 1 mg/l in medium W): +
